Data source: PubChem BioAssay AID1259254 (NCATS, 2017)

- Screen: 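Gene knock-downs that lead to re-replication, shown by excess G2 DNA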 (primary screen)
- Cells: human HCT116 colorectal cancer cells
- Reagent: single siRNA against human genes
- Duration: 3 days
- Detection: 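Nuclei stained with Hoechst and imaged; cell-cycle phase assigned by DNA content; G2 share scaled per plate, non-targeting siRNA 0%, GMNN siRNA 100%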
- Scale: G2 robust z-score and G2 cells, % of GMNN control: higher = more G2 cells, more excess DNA replication; raw share of cells in G2: higher = larger share of cells with G2 DNA content
- Active means: 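Active siRNAs have a G2 robust z of 5 or more median absolute deviations over the median, which in these data means about 38% or higher of GMNN control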
The deposit covers about 59,000 reagents; shown is a part drawn at random. Over the whole deposit, about 1,550 (2.6%) were called active. 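G2 share is only a proxy for re-replication; each gene was hit by three separate siRNAs, and active genes were retested.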 Raw values are not corrected between plates. A number with no mark means an inactive call. Reagents against one gene are numbered here. No sequences are given here. Not stated in the record: the amount of reagent.

no.	Gene	reagent no.	G2 robust z-score	G2 cells, % of GMNN control	raw share of cells in G2 (%)
1	REXO1 (RNA exonuclease 1 homolog)	1	1.08	10.6	8.09
2	REXO1 (RNA exonuclease 1 homolog)	2	-1.16	-5.19	2.34
3	REXO1 (RNA exonuclease 1 homolog)	3	-0.0567	2.57	6.71
4	GJA4 (gap junction protein alpha 4)	1	-0.32	0.715	5.18
5	GJA4 (gap junction protein alpha 4)	2	-0.159	1.85	4.2
6	GJA4 (gap junction protein alpha 4)	3	-0.35	0.505	3.29
7	RNF39 (ring finger protein 39)	1	0.674	7.71	6.98
8	RNF39 (ring finger protein 39)	2	-0.965	-3.82	3.84
9	RNF39 (ring finger protein 39)	3	2.31	19.2	11.9
10	GPR62 (G protein-coupled receptor 62)	1	-1.19	-5.38	3.92
11	GPR62 (G protein-coupled receptor 62)	2	0.145	3.99	5.91
12	GPR62 (G protein-coupled receptor 62)	3	-0.772	-2.47	2.51
13	PTCH2 (patched 2)	1	1.53	13.8	10.8
14	PTCH2 (patched 2)	2	8.37 (active)	61.8	26.9
15	PTCH2 (patched 2)	3	-0.982	-3.94	3.88
16	SUMF2 (sulfatase modifying factor 2)	1	-0.673	-1.76	3.75
17	SUMF2 (sulfatase modifying factor 2)	2	-0.299	0.863	4.31
18	SUMF2 (sulfatase modifying factor 2)	3	0.0161	3.08	4.38

A few values from the list:
Entry for PTCH2 (patched 2) #3 under “G2 cells, % of GMNN control”: -3.94
Result of REXO1 (RNA exonuclease 1 homolog) #2 under “G2 cells, % of GMNN control”: -5.19
For “G2 robust z-score”, SUMF2 (sulfatase modifying factor 2) #1 has -0.673

The results go on:
no.	Gene	reagent no.	G2 robust z-score	G2 cells, % of GMNN control	raw share of cells in G2 (%)
19	MYT1L-AS1 (MYT1L antisense RNA 1)	1	-0.391	0.219	3.58
20	MYT1L-AS1 (MYT1L antisense RNA 1)	2	0.889	9.22	7.28
21	MYT1L-AS1 (MYT1L antisense RNA 1)	3	5.01 (active)	38.2	19.2
22	WSB2 (WD repeat and SOCS box containing 2)	1	0.317	5.2	6.4
23	WSB2 (WD repeat and SOCS box containing 2)	2	0.511	6.57	7.6
24	WSB2 (WD repeat and SOCS box containing 2)	3	-0.895	-3.33	1.98
25	NTN1 (netrin 1)	1	-0.518	-0.677	3.3
26	NTN1 (netrin 1)	2	0.255	4.76	8.11
27	NTN1 (netrin 1)	3	-0.473	-0.36	3.19
28	PGBD1 (piggyBac transposable element derived 1)	1	-0.555	-0.938	2.46
29	PGBD1 (piggyBac transposable element derived 1)	2	2.75	22.3	16
30	PGBD1 (piggyBac transposable element derived 1)	3	0.0102	3.04	4.59
31	CHRNA10 (cholinergic receptor nicotinic alpha 10 subunit)	1	-0.819	-2.8	3.28
32	CHRNA10 (cholinergic receptor nicotinic alpha 10 subunit)	2	0.947	9.63	8.79
33	CHRNA10 (cholinergic receptor nicotinic alpha 10 subunit)	3	2.46	20.3	11.6
34	TAF15 (TATA-box binding protein associated factor 15)	1	-0.197	1.58	6.27
35	TAF15 (TATA-box binding protein associated factor 15)	2	-0.477	-0.389	4.35
36	TAF15 (TATA-box binding protein associated factor 15)	3	-0.607	-1.3	3.78
37	DEFB129 (defensin beta 129)	1	-1.16	-5.21	1.55
38	DEFB129 (defensin beta 129)	2	1.65	14.6	8.95
39	DEFB129 (defensin beta 129)	3	0.167	4.14	5.84
40	ABRAXAS2 (abraxas 2, BRISC complex subunit)	1	0.236	4.63	6.8
41	ABRAXAS2 (abraxas 2, BRISC complex subunit)	2	-0.942	-3.66	2.62
42	ABRAXAS2 (abraxas 2, BRISC complex subunit)	3	-0.507	-0.602	2.95
43	SRD5A2 (steroid 5 alpha-reductase 2)	1	-0.362	0.419	5.82
44	SRD5A2 (steroid 5 alpha-reductase 2)	2	0.0327	3.2	5.64
45	SRD5A2 (steroid 5 alpha-reductase 2)	3	0.138	3.94	5.26
46	TMEM116 (transmembrane protein 116)	1	-0.524	-0.718	3.33
47	TMEM116 (transmembrane protein 116)	2	-0.0421	2.67	5.22
48	TMEM116 (transmembrane protein 116)	3	-0.103	2.24	3.7
49	TMEM116 (transmembrane protein 116)	4	-0.246	1.24	3.32
50	TMEM116 (transmembrane protein 116)	5	-0.38	0.295	3.65
51	TMEM116 (transmembrane protein 116)	6	2.14	18	9.22
